Measurements from article PMC8973939.
No constants are given. Whether binding was seen depends on the method and setting. In cells and extracts the contact can be indirect. Some binding calls cover weakened binding; strength is not graded here.

The chains behind the UniProt entries cited, without tags or fusion partners.
UniProt O75365: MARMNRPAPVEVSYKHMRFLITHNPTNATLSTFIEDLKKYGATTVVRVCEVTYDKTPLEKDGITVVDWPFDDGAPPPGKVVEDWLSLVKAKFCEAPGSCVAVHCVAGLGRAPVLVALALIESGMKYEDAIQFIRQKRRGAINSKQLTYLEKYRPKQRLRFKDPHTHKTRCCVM
UniProt Q13509: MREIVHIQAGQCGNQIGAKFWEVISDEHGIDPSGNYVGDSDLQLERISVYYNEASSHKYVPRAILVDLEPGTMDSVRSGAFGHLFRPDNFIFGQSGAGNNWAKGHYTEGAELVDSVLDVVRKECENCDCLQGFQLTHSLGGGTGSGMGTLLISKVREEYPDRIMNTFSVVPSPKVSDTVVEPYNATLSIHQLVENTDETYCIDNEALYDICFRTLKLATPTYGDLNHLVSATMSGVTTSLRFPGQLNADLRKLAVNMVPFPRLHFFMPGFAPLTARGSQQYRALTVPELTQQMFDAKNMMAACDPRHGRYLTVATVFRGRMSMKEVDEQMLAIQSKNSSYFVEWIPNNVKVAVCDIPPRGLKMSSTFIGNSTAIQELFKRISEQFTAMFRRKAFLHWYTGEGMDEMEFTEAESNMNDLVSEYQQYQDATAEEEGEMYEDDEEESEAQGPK

What was measured:
[1] = target: recombinant protein GST-PRL-3 (phosphatase of regenerating liver-3) (UniProt O75365); assay: pull-down; purified GST-PRL-3 (or GST) on agarose beads incubated with U251MG cell lysate overnight at 4°C; washed 5-8 times with RIPA buffer; SDS-PAGE, bands analysed by mass spectrometry, β3-tubulin detected by Western blot; only the target purified
[2] = target: Class III β-tubulin (β3-tubulin) (human (endogenous in U251MG)) (UniProt Q13509); assay: co-IP; U251MG cell lysate, precleared with Protein A/G beads; 1 μg β3-tubulin antibody (control: IgG of the same type), overnight at 4°C; beads washed 3 times with PBS pH 7.4; PRL-3 detected by Western blot

Row | Substance | binding [1] | binding [2]
1 | Class III β-tubulin (β3-tubulin) (from UniProt Q13509 1-450) | binds | 
2 | PRL-3 (phosphatase of regenerating liver-3), endogenous (from UniProt O75365 1-173) (enzyme) |  | binds
